Experimental data published in the supplement of paper PMC12819154, “High-throughput peptide-centric local stability assay extends protein–ligand identification to membrane proteins, tissues and bacteria” (Nature Structural & Molecular Biology, 2025).
The list shows a part of the results. Small differences around the control level are noise.

By UniProt entry, the sequences of proteins in these tests, tags left out. Where a name states a change or a piece, a line headed by the entry shows the natural chain unless it says otherwise.
UniProt P54278: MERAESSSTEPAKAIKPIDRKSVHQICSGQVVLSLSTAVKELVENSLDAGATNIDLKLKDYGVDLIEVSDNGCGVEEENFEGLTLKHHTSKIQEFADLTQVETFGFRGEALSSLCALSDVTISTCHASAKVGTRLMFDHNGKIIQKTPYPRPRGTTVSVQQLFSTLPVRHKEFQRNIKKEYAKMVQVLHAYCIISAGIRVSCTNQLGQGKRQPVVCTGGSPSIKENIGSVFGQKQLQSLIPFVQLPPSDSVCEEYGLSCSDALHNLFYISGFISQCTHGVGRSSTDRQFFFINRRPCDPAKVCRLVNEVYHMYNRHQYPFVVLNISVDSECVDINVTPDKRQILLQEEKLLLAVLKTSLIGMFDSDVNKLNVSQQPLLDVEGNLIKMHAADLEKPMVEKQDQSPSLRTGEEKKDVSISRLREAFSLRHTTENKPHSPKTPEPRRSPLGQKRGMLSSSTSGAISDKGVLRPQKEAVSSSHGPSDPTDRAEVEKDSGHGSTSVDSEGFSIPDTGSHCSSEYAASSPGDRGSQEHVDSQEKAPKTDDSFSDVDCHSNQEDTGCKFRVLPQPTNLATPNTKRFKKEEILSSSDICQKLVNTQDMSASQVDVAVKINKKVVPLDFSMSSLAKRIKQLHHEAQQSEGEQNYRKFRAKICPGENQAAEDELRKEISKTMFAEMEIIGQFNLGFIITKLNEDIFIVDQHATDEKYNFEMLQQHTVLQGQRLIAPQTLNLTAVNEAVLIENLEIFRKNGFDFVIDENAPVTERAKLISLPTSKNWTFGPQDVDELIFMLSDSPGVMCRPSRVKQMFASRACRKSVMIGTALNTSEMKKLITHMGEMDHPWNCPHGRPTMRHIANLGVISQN
UniProt P49748: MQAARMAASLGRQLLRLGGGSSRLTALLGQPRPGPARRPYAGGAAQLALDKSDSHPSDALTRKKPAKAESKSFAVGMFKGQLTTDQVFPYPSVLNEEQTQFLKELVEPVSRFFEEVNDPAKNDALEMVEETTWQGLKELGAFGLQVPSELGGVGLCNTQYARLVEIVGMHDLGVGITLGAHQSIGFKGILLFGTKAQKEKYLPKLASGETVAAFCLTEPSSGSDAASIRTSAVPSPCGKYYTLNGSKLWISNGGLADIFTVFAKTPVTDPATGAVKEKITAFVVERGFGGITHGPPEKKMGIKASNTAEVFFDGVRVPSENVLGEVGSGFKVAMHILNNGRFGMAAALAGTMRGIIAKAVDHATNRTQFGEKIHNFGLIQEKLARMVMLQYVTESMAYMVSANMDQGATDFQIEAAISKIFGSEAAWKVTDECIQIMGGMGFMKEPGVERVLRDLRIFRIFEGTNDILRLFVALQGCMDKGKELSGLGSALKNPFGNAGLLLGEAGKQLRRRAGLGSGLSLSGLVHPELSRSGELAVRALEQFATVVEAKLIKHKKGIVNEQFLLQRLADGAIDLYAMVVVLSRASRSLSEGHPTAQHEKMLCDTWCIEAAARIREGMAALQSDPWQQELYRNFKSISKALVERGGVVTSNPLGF
UniProt P53634: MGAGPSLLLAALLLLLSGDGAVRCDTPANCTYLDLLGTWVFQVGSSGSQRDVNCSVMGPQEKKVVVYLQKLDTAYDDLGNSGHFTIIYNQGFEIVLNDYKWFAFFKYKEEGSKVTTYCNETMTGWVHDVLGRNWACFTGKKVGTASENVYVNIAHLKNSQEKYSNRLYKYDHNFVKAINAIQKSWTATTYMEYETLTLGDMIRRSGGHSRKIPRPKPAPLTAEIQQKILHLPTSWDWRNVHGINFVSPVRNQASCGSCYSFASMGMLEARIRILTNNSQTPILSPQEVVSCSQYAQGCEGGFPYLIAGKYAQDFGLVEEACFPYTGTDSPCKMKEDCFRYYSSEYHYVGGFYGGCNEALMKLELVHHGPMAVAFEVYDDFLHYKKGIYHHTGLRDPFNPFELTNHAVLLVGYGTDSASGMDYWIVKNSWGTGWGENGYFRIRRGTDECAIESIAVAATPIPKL
UniProt P49069: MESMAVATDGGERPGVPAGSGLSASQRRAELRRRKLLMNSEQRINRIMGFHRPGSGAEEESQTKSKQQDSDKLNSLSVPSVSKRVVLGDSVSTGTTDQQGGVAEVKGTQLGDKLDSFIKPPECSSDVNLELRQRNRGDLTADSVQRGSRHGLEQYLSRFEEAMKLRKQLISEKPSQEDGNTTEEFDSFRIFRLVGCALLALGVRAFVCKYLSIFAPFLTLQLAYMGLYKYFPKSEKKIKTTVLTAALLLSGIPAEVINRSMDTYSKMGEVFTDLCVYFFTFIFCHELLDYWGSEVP
UniProt P48059, whole entry: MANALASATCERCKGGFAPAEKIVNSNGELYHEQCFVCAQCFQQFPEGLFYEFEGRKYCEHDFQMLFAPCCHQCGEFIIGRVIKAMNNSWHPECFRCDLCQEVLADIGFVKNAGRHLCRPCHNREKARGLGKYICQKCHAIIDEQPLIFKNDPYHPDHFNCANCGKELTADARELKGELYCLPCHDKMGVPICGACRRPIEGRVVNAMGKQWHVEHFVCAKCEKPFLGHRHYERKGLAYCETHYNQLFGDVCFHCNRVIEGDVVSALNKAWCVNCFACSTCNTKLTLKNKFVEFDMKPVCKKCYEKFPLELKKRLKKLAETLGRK
UniProt P50548: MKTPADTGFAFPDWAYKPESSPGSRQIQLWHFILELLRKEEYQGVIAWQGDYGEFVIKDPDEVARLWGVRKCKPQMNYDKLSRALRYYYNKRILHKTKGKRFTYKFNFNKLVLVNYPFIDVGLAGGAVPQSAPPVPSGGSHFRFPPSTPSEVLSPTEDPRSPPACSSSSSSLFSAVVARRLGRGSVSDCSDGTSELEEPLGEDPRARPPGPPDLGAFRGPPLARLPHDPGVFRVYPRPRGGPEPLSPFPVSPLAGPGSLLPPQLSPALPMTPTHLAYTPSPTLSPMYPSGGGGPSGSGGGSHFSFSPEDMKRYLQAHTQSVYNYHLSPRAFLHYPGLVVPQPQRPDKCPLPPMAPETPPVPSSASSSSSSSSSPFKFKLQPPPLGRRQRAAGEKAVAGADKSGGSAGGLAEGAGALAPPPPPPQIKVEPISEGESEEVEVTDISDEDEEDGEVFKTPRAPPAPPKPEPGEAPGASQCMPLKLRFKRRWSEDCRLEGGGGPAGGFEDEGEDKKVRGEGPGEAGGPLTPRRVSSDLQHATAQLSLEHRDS
UniProt P49720: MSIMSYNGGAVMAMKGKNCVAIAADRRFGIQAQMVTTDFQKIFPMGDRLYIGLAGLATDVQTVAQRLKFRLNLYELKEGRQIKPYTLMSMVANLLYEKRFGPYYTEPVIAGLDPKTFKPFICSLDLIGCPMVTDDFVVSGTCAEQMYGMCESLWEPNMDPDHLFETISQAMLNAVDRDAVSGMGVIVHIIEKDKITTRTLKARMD
UniProt P49903: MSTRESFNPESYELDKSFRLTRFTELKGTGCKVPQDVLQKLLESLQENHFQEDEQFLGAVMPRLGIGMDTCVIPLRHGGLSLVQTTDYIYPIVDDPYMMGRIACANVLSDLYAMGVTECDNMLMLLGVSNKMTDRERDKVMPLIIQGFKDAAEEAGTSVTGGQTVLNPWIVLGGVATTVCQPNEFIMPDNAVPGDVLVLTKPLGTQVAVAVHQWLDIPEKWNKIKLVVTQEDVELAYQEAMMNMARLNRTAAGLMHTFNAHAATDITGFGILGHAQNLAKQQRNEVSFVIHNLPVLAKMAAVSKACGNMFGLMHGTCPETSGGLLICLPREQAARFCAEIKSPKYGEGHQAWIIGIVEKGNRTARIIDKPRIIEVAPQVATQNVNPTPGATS
UniProt P52789: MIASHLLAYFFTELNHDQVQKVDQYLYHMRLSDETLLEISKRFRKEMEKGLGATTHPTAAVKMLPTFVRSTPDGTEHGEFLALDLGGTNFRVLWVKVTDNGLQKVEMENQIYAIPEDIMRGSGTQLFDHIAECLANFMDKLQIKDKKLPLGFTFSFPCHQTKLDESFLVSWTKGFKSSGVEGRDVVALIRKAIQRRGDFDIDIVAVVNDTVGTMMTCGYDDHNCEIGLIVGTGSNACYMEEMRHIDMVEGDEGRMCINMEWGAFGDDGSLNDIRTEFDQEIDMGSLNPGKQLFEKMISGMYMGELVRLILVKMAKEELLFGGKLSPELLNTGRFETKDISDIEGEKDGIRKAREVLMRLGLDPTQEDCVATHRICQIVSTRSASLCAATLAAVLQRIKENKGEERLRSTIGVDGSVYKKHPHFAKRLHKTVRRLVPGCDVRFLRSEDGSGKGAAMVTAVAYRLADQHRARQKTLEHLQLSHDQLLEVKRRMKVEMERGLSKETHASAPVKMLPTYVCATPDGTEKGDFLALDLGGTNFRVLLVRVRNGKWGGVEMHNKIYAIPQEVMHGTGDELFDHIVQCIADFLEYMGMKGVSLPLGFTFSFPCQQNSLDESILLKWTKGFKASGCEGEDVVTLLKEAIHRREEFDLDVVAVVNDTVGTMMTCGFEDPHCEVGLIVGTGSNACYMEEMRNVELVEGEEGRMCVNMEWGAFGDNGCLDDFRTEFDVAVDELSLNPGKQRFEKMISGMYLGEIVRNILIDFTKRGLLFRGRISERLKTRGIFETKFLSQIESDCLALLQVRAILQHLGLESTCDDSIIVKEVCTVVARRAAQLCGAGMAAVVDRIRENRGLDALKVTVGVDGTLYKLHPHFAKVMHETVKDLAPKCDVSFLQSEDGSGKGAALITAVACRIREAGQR
UniProt P50583: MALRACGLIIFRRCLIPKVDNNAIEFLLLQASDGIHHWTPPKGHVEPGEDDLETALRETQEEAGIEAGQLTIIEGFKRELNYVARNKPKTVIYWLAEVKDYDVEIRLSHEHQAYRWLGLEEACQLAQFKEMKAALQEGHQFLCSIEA
UniProt P50454: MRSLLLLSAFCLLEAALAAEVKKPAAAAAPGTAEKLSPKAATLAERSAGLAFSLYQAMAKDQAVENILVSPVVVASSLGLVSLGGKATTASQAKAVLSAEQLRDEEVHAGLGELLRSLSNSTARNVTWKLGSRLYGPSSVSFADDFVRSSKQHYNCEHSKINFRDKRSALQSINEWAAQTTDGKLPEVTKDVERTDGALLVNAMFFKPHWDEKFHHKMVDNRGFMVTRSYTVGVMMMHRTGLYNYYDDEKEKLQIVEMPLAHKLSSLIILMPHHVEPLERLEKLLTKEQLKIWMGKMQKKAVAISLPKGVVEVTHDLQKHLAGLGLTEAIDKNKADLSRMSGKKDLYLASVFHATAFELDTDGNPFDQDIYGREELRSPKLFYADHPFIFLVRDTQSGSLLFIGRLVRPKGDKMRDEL
UniProt P49773: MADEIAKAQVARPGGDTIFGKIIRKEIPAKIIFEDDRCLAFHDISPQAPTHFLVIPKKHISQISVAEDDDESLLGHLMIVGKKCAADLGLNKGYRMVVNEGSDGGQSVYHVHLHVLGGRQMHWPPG
UniProt P49591: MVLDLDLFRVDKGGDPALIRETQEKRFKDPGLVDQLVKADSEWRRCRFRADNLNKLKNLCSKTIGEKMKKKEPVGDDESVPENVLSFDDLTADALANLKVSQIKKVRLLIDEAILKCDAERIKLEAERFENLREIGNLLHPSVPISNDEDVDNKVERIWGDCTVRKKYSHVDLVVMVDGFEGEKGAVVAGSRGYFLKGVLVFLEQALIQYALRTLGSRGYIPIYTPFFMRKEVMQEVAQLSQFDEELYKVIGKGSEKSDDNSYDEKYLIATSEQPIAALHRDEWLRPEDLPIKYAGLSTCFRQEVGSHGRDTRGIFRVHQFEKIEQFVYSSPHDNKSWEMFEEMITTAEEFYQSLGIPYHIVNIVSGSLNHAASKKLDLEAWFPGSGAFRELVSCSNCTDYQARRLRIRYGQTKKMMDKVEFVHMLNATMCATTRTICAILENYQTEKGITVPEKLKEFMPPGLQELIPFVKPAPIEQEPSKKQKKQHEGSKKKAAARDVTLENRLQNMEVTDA
UniProt P48506: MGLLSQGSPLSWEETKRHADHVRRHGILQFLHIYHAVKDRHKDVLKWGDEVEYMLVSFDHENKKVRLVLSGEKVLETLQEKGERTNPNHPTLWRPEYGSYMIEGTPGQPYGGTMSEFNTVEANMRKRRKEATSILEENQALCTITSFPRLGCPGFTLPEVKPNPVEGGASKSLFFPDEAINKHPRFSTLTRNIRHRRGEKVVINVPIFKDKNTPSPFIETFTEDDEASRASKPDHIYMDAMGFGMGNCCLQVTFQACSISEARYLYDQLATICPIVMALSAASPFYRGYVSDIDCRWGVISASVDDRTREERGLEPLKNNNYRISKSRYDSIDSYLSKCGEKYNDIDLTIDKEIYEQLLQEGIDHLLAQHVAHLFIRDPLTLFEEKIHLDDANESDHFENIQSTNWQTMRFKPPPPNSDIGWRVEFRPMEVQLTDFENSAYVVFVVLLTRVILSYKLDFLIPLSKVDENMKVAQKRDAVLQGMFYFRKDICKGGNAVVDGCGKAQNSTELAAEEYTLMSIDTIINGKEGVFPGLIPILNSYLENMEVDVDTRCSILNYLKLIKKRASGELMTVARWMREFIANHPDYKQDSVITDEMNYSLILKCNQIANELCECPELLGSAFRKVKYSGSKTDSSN

These targets were tested with CN[C@@H]1C[C@H]2O[C@@](C)([C@@H]1OC)n1c3ccccc3c3c4c(c5c6ccccc6n2c5c31)C(=O)NC4 [staurosporine] (assay: log2 fold change of tryptic peptide abundance, ligand vs vehicle (limited proteolysis) (log2 ratio); higher = more trypsin-susceptible (destabilized)). Settings: ligand concentration: 20 uM; sample: K562 cleared lysate; digestion: 4 min, 22 C (HT-PELSA RT4min, Orbitrap Astral).

Target	log2 fold change
GYG1 (peptide sequence: GALVLGSSLK, peptide start residue: 18) (UniProt P46976)	-0.405
STAT2 (peptide sequence: CSQDPESLLLQHNLRK, peptide start residue: 74) (UniProt P52630)	0.518
PMS2 (peptide sequence: FKKEEILSSSDICQK, peptide start residue: 579) (UniProt P54278)	-0.327
ACADVL (peptide sequence: IFEGTNDILR, peptide start residue: 460) (UniProt P49748)	0.605
TRAPPC10 (peptide sequence: AHSSVDWLIVIVENDAK, peptide start residue: 117) (UniProt P48553)	0.643
POLR2J (peptide sequence: VPNACLFTINKEDHTLGNIIK, peptide start residue: 27) (UniProt P52435)	0.243
CTSC (peptide sequence: MKEDCFR, peptide start residue: 333) (UniProt P53634)	-0.518
DNM2 (peptide sequence: RPVSSIHPPGRPPAVR, peptide start residue: 770) (UniProt P50570)	0.15
GTF2A1 (peptide sequence: SVIEDVINDVR, peptide start residue: 16) (UniProt P52655)	-0.314
CAMLG (peptide sequence: IMGFHRPGSGAEEESQTK, peptide start residue: 47) (UniProt P49069)	0.159
UniProt P52434 (peptide sequence: LHCESESFK, peptide start residue: 28)	0.141
LIMS1 (peptide sequence: LAETLGRK, peptide start residue: 318) (UniProt P48059)	0.323
ERF (peptide sequence: VRGEGPGEAGGPLTPR, peptide start residue: 513) (UniProt P50548)	-0.328
UniProt P46379 (peptide sequence: MATHTLITGLEEYVR, peptide start residue: 806)	0.229
UniProt P49720 (peptide sequence: LYIGLAGLATDVQTVAQR, peptide start residue: 49)	-0.318
SEPHS1 (peptide sequence: YGEGHQAWIIGIVEK, peptide start residue: 345) (UniProt P49903)	0.224
UniProt P47813 (peptide sequence: MLGNGRLEAMCFDGVK, peptide start residue: 41)	-0.142
RAD23B (peptide sequence: PAEKPAETPVATSPTATDSTSGDSSR, peptide start residue: 148) (UniProt P54727)	-0.163

Target	log2 fold change
ARHGDIA (peptide sequence: KYKEALLGR, peptide start residue: 50) (UniProt P52565)	0.33
HK2 (peptide sequence: KLPLGFTFSFPCHQTK, peptide start residue: 147) (UniProt P52789)	0.479
CDC34 (peptide sequence: WNPTQNVR, peptide start residue: 114) (UniProt P49427)	0.126
NUDT2 (peptide sequence: DYDVEIR, peptide start residue: 100) (UniProt P50583)	0.299
PPOX (peptide sequence: TPQPDSALIR, peptide start residue: 208) (UniProt P50336)	0.153
PGD (peptide sequence: CLSSLKDER, peptide start residue: 289) (UniProt P52209)	0.492
PSMD8 (peptide sequence: LVLLELNFLPTTGTK, peptide start residue: 121) (UniProt P48556)	-0.242
SERPINH1 (peptide sequence: TDGALLVNAMFFKPHWDEK, peptide start residue: 195) (UniProt P50454)	-0.198
CCT5 (peptide sequence: GIHPIRIADGYEQAAR, peptide start residue: 127) (UniProt P48643)	0.564
NAPA (peptide sequence: VKNSQSFFSGLFGGSSK, peptide start residue: 21) (UniProt P54920)	0.412
KIF11 (peptide sequence: NGVYISEENFR, peptide start residue: 396) (UniProt P52732)	-0.102
UniProt P49459 (peptide sequence: RVSAIVEQSWR, peptide start residue: 140)	-0.139
ATXN3 (peptide sequence: REAYFEK, peptide start residue: 285) (UniProt P54252)	0.55
HINT1 (peptide sequence: CLAFHDISPQAPTHFLVIPK, peptide start residue: 38) (UniProt P49773)	-0.388
PSMD7 (peptide sequence: VVGVLLGSWQKK, peptide start residue: 35) (UniProt P51665)	0.809
UniProt P49591 (peptide sequence: IKLEAERFENLR, peptide start residue: 122)	-0.129
GCLC (peptide sequence: VVINVPIFK, peptide start residue: 201) (UniProt P48506)	-0.117
CARS (peptide sequence: SYISFDILR, peptide start residue: 70) (UniProt P49589)	-0.359

Random excerpt: 3 records from the list.
Target	log2 fold change
PSMD7 (peptide sequence: VVGVLLGSWQKK, peptide start residue: 35) (UniProt P51665)	0.809
KIF11 (peptide sequence: NGVYISEENFR, peptide start residue: 396) (UniProt P52732)	-0.102
CARS (peptide sequence: SYISFDILR, peptide start residue: 70) (UniProt P49589)	-0.359
